Data reported in patent US20090134028A1, “Method of Estimating Effect of Test Chemical on Living Organisms” (Chemicals Evaluation and Research Institute, priority 2005, published 2009).
At least one structure is not confirmed: it was looked up by name or label, or the drawing left a doubt.

Legend:
[1] = Prediction of carcinogenicity using Support Vector Machine (SVM) from post-translational modification data; conditions: top-ranked (t value of Welch) 25 sets of post-translational modification data, rat liver, 28 days oral
[2] = Prediction of liver cell hypertrophy using SVM from post-translational modification data; set-up: species or system rat; conditions: training set, top-ranked 20 sets of post-translational modification data

| Structure (SMILES) | Prediction result (training set) [1] | Prediction result [2] |
| --- | --- | --- |
| CCOC(=O)C(C)(C)Oc1ccc(Cl)cc1 [Clofibrate] | +1 CORRECT | +1 CORRECT |
| C#C[C@]1(O)CC[C@H]2[C@@H]3CCc4cc(O)ccc4[C@H]3CC[C@@]21C [Ethinylestradiol] | +1 CORRECT | −1 CORRECT |
